Measured values published in PubChem BioAssay AID256 (DTP/NCI, 2004).
The list is a part of this screen's results and no random one: it is rich in T/C values a quarter to a half above the control, in often repeated tests (any T/C) and in doses without a T/C. Other doses and runs of a compound stand elsewhere. T/C is the treated group as % of the vehicle group. Some entries give survivors of the animals treated and no T/C: the source files T/C as zero there, which appears to mark a toxic dose or a test without result, not a measured value. Some doses without a T/C left all or most animals alive at the check, yet need not have been tolerated: survival well below the control is almost never listed, so the zero probably covers shortened survival too. Counts of survivors are from the toxicity check (mostly the fifth day) where no day follows; animals may have died later. Schedules are NCI's codes, read here as Q, the interval in days (D) or hours (H), X, the number of doses. Some doses were run more than once; the values are given in rising order. For survival time, the PubChem record calls one and a half times the control and up active, and a quarter to a half above the control has no call in these data; cut-offs in other NCI protocols can differ. Brackets with × stand for listed records that agree. Some T/C values carry the count of animals alive at the toxicity check (mostly the fifth day); without a count, all were alive then.

Test system: CD2F1 mice, L1210 leukemia ip, survival T/C
Experiment: NCI In Vivo Anticancer Drug Screen. Data for tumor model L1210 Leukemia (intraperitoneal) in CD2F1 (CDF1) mice
Settings: T/C endpoint: mean survival time, higher T/C = longer survival
Procedure, shortened: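 Implant tumor; dose compound or vehicle; measure endpoint in both groups; report treated divided by control.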

[1] = dose: 6.25 mg/kg/injection, schedule: Q01DX009 (oral), vehicle: saline
[2] = dose: 16.0 mg/kg/injection, schedule: Q01DX005 (ip), vehicle: saline

Nc1ncn(C2OC(CO)C(O)C2O)c(=O)n1 (stereo not given)
T/C (dose: 0.25 mg/kg/injection, schedule: Q03HX024 (ip), vehicle: saline): 128 % of control | T/C (dose: 0.5 mg/kg/injection, schedule: Q01DX005 (ip), vehicle: water): 134 % of control | T/C (dose: 0.5 mg/kg/injection, schedule: Q01DX009 (ip), vehicle: saline, evaluated on day 45): 140 % of control | T/C (dose: 0.5 mg/kg/injection, schedule: Q01DX009 (ip), vehicle: saline, evaluated on day 50): 135 % of control | T/C (dose: 0.75 mg/kg/injection, schedule: Q01DX005 (ip), vehicle: saline): 142 % of control | T/C (dose: 0.75 mg/kg/injection, schedule: Q01DX005 (ip), vehicle: water, evaluated on day 30): 139 % of control | T/C (dose: 0.75 mg/kg/injection, schedule: Q01DX005 (ip), vehicle: water, evaluated on day 35): 145 % of control | T/C (dose: 0.75 mg/kg/injection, schedule: Q01DX009 (ip), vehicle: saline): 126, 132, 146 [5 of 6 alive], 151 [5 of 6 alive], 172, 176, 189 % of control | T/C (dose: 0.78 mg/kg/injection, schedule: Q01DX009 (ip), vehicle: saline): 131, 137, 139 % of control | T/C (dose: 1.0 mg/kg/injection, schedule: Q01DX005 (ip), vehicle: water): 148 % of control | T/C (dose: 1.25 mg/kg/injection, schedule: Q04DX003 (ip), vehicle: saline): 118, 122, 132, 134, 136 % of control | T/C (dose: 1.25 mg/kg/injection, schedule: Q06HX012 (ip), vehicle: saline): 134 and 148 % of control | T/C (dose: 1.5 mg/kg/injection, schedule: Q01DX005 (ip), vehicle: water): 145 % of control | T/C (dose: 1.5 mg/kg/injection, schedule: Q01DX009 (ip), vehicle: saline): 144, 159, 164, 180, 182, 190 [5 of 6 alive], 221 % of control | T/C (dose: 1.56 mg/kg/injection, schedule: Q01DX009 (ip), vehicle: saline): 148 % of control [5 of 6 alive] | T/C (dose: 1.56 mg/kg/injection, schedule: Q01DX009 (oral), vehicle: saline): 131 % of control | T/C (dose: 1.56 mg/kg/injection, schedule: Q04DX003 (ip), vehicle: saline): 134 % of control | T/C (dose: 2.0 mg/kg/injection, schedule: Q01DX005 (ip), vehicle: saline): 175, 183, 226, 232 % of control | T/C (dose: 2.5 mg/kg/injection, schedule: Q04DX003 (ip), vehicle: saline): 117 (2×), 128, 147, 156 % of control | T/C (dose: 3.0 mg/kg/injection, schedule: Q01DX009 (ip), vehicle: saline): 154 [5 of 6 alive], 158, 182, 223, 224, 228 [5 of 6 alive], 234 % of control | T/C (dose: 3.12 mg/kg/injection, schedule: Q01DX009 (ip), vehicle: saline): 133 % of control | T/C (dose: 3.13 mg/kg/injection, schedule: Q01DX009 (ip), vehicle: saline): 127 % of control | T/C (dose: 3.75 mg/kg/injection, schedule: Q04DX003 (ip), vehicle: saline): 139 % of control | T/C (dose: 4.0 mg/kg/injection, schedule: Q01DX005 (ip), vehicle: saline): 225, 250, 255, 291 % of control | T/C (dose: 4.0 mg/kg/injection, schedule: Q03HX024 (ip), vehicle: saline): 129 % of control | T/C (dose: 5.0 mg/kg/injection, schedule: Q04DX003 (ip), vehicle: saline): 140, 149, 156, 164, 168, 175, 177 % of control | survivor count (dose: 6.0 mg/kg/injection, schedule: Q01DX005 (ip), vehicle: water): 6 of 6 | T/C (dose: 6.0 mg/kg/injection, schedule: Q01DX009 (ip), vehicle: saline): 102, 102 [5 of 6 alive], 121, 125, 130, 170 % of control | T/C (dose: 6.25 mg/kg/injection, schedule: Q01DX009 (ip), vehicle: saline): 101, 115, 140, 194 (2×), 202, 225, 229 % of control | T/C [1]: 148 % of control | survivor count [1]: 2 of 6 | T/C (dose: 6.25 mg/kg/injection, schedule: Q04DX003 (ip), vehicle: saline): 128 % of control | T/C (dose: 8.0 mg/kg/injection, schedule: Q01DX005 (ip), vehicle: saline): 245, 251, 270, 277 % of control | survivor count (dose: 8.0 mg/kg/injection, schedule: Q03HX024 (ip), vehicle: saline): 2 of 8 | T/C (dose: 10.0 mg/kg/injection, schedule: Q04DX003 (ip), vehicle: saline): 175, 181, 184, 188, 194, 210, 232, 235 % of control | survivor count (dose: 12.0 mg/kg/injection, schedule: Q01DX009 (ip), vehicle: saline): 2 of 6 | T/C (dose: 12.5 mg/kg/injection, schedule: Q01DX001 (ip), vehicle: saline): 137 and 140 % of control | T/C (dose: 12.5 mg/kg/injection, schedule: Q01DX009 (ip), vehicle: saline, evaluated on day 30): 123, 157, 203, 211 % of control (2×) | T/C (dose: 12.5 mg/kg/injection, schedule: Q01DX009 (ip), vehicle: saline, evaluated on day 50): 179 % of control | survivor count (dose: 12.5 mg/kg/injection, schedule: Q01DX009 (ip), vehicle: saline): 5 of 6 and 6 of 6 | survivor count (dose: 12.5 mg/kg/injection, schedule: Q01DX009 (oral), vehicle: saline): 3 of 6 | T/C (dose: 12.5 mg/kg/injection, schedule: Q04DX003 (ip), vehicle: saline): 132 % of control (2×) | T/C [2]: 100, 120, 151 % of control | survivor count [2]: 7 of 8 | T/C (dose: 20.0 mg/kg/injection, schedule: Q04DX003 (ip), vehicle: saline): 130, 174, 178, 183, 184, 225, 229, 238, 239 % of control | T/C (dose: 25.0 mg/kg/injection, schedule: Q01DX001 (ip), vehicle: saline): 146 % of control | T/C (dose: 25.0 mg/kg/injection, schedule: Q01DX009 (ip), vehicle: saline, evaluated on day 30): 185 [5 of 6 alive], 200, 218, 229 % of control | T/C (dose: 25.0 mg/kg/injection, schedule: Q01DX009 (ip), vehicle: saline, evaluated on day 50): 207 % of control | T/C (dose: 25.0 mg/kg/injection, schedule: Q04DX003 (ip), vehicle: saline): 129 and 149 % of control | T/C (dose: 40.0 mg/kg/injection, schedule: Q04DX003 (ip), vehicle: saline): 109, 122, 125, 126, 128, 135, 145 (2×), 161 % of control | T/C (dose: 50.0 mg/kg/injection, schedule: Q01DX009 (ip), vehicle: saline, evaluated on day 30): 191, 244, 247, 250 % of control | T/C (dose: 50.0 mg/kg/injection, schedule: Q01DX009 (ip), vehicle: saline, evaluated on day 50): 232 % of control | T/C (dose: 50.0 mg/kg/injection, schedule: Q04DX003 (ip), vehicle: saline): 148 % of control | T/C (dose: 100.0 mg/kg/injection, schedule: Q01DX009 (ip), vehicle: saline, evaluated on day 30): 180, 246, 270 % of control | T/C (dose: 100.0 mg/kg/injection, schedule: Q01DX009 (ip), vehicle: saline, evaluated on day 50): 228 % of control
